PubChem BioAssay AID504804 | Drosophila RNAi Screening Center, 2011
The deposit covers about 19,000 reagents; this is a random part of those that have a named target and a result. Over the whole deposit, 47 (0.25%) were called active. 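Signals are raw, not normalised; exact z-scores behind calls not deposited; actives needed confirmation, so some wells reaching 2 SD are inactive.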 A number with no mark means an inactive call. Reagents against one gene are numbered here.

Aim: 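Knock-downs shielding fly cells from apoptosis caused by DNA damage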 (primary screen)
Cell system: Drosophila Kc cells
Reagent: long dsRNA against Drosophila genes, 0.5 µg dsRNA per well
Timing: 96 h (48 h knock-down, then 48 h drug)
Conditions: doxorubicin 5 µg/ml for 48 h, added 48 h after dsRNA
Read-out: 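Luminescent ATP counts per replicate, not normalised, reflecting viable cells after 48 h dsRNA knock-down followed by 48 h of 5 µg/ml doxorubicin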
Direction: raw ATP luminescence: higher = more viable cells, protection from doxorubicin
Hit rule: 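z-score of 2 or more over plate mean in both duplicates, retained only when retests and separate dsRNAs confirm the protection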

With Atg13, what does the deposit list?
raw ATP luminescence, replicate 1: 50493; raw ATP luminescence, replicate 2: 43780

With Zfrp8, what was measured?
raw ATP luminescence, replicate 1: 44363; raw ATP luminescence, replicate 2: 46720

How did the screen score Cpr30F?
raw ATP luminescence, replicate 1: 78613; raw ATP luminescence, replicate 2: 62820

What did the screen give for CG11342?
raw ATP luminescence, replicate 1: 62143; raw ATP luminescence, replicate 2: 73680

Which result is listed for CG14710?
raw ATP luminescence, replicate 1: 59283; raw ATP luminescence, replicate 2: 28763

For Tmem131, what does the deposit list?
raw ATP luminescence, replicate 1: 56123; raw ATP luminescence, replicate 2: 50053

Which result is listed for dpr7?
raw ATP luminescence, replicate 1: 2.24e5; raw ATP luminescence, replicate 2: 1.93e5

What is on record for CG3868?
raw ATP luminescence, replicate 1: 24857; raw ATP luminescence, replicate 2: 26310

For CG4751, what does the deposit list?
raw ATP luminescence, replicate 1: 1.43e5; raw ATP luminescence, replicate 2: 84103

What did the screen give for CG31467?
raw ATP luminescence, replicate 1: 57600; raw ATP luminescence, replicate 2: 43673

With CG15754, what does the deposit list?
raw ATP luminescence, replicate 1: 3.13e5; raw ATP luminescence, replicate 2: 3.01e5

What is on record for CG14668?
raw ATP luminescence, replicate 1: 48260; raw ATP luminescence, replicate 2: 61093

With SAK, how do the results read?
raw ATP luminescence, replicate 1: 64853; raw ATP luminescence, replicate 2: 66453

With CG1671, what does the deposit list?
raw ATP luminescence, replicate 1: 62830; raw ATP luminescence, replicate 2: 55793

Which result is listed for CG7694?
raw ATP luminescence, replicate 1: 74730; raw ATP luminescence, replicate 2: 63830

What is on record for CG14434?
raw ATP luminescence, replicate 1: 42230; raw ATP luminescence, replicate 2: 54900

What is on record for Pus1?
raw ATP luminescence, replicate 1: 72720; raw ATP luminescence, replicate 2: 79700

With Ilp4, what was measured?
raw ATP luminescence, replicate 1: 79190; raw ATP luminescence, replicate 2: 79667

Which result is listed for Qsox2?
raw ATP luminescence, replicate 1: 42977; raw ATP luminescence, replicate 2: 47987

For CG7029, what does the deposit list?
raw ATP luminescence, replicate 1: 47540; raw ATP luminescence, replicate 2: 37650

What did the screen give for dany?
raw ATP luminescence, replicate 1: 71043; raw ATP luminescence, replicate 2: 59847

With CG9806, what does the deposit list?
raw ATP luminescence, replicate 1: 3.49e5; raw ATP luminescence, replicate 2: 3.46e5

What is on record for RpLP0-like?
raw ATP luminescence, replicate 1: 76830; raw ATP luminescence, replicate 2: 41920

With Srp9, what was measured?
raw ATP luminescence, replicate 1: 68167; raw ATP luminescence, replicate 2: 63003

How did the screen score Mzt1?
raw ATP luminescence, replicate 1: 1.87e5; raw ATP luminescence, replicate 2: 1.44e5

What did the screen give for CG17752?
raw ATP luminescence, replicate 1: 51490; raw ATP luminescence, replicate 2: 70560

With CG17364 #1, what was measured?
raw ATP luminescence, replicate 1: 53513; raw ATP luminescence, replicate 2: 55320

Which result is listed for CG17364 #2?
raw ATP luminescence, replicate 1: 64193; raw ATP luminescence, replicate 2: 67590

With CG3045, how do the results read?
raw ATP luminescence, replicate 1: 75880; raw ATP luminescence, replicate 2: 57587

With Klp59D, what does the deposit list?
raw ATP luminescence, replicate 1: 40127; raw ATP luminescence, replicate 2: 68337

What did the screen give for CG14200?
raw ATP luminescence, replicate 1: 98110; raw ATP luminescence, replicate 2: 1.58e5

For inc, what was measured?
raw ATP luminescence, replicate 1: 40000; raw ATP luminescence, replicate 2: 43740

What did the screen give for mthl7?
raw ATP luminescence, replicate 1: 54700; raw ATP luminescence, replicate 2: 82220

For cad, how do the results read?
raw ATP luminescence, replicate 1: 35593; raw ATP luminescence, replicate 2: 46923

For Cyp9b1, what was measured?
raw ATP luminescence, replicate 1: 59300; raw ATP luminescence, replicate 2: 76263

What did the screen give for CG43980 #1?
raw ATP luminescence, replicate 1: 69173; raw ATP luminescence, replicate 2: 62470

With CG43980 #2, how do the results read?
raw ATP luminescence, replicate 1: 70700; raw ATP luminescence, replicate 2: 62987
